Taken from: PubChem BioAssay AID686943 (Drosophila RNAi Screening Center, 2013)

- Screen: 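Knockdowns that increase or decrease active ERK after insulin receptor stimulation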 (primary screen)
- System: Drosophila S2R+ haemocyte-like cells expressing YFP-tagged ERK (Rolled)
- Reagent: long dsRNA against Drosophila genes
- Conditions: insulin stimulation versus unstimulated cells; dose and duration not given
- Measured: 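Antibody staining for doubly phosphorylated ERK divided by ERK-YFP signal, as plate z-scores, in insulin-treated and untreated cells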
- Scale: replicate 1, z-score of dpERK with insulin and replicate 2, z-score of dpERK with insulin: higher = more active ERK per ERK-YFP after insulin; replicate 1, z-score of dpERK under basal conditions: higher = more basal active ERK per ERK-YFP; replicate 1, z-score of ERK-YFP with insulin: higher = more YFP-tagged ERK signal
The deposit covers about 23,000 reagents; this is an unselected part of those that have a named target and a result. 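Extra replicates exist only for a retested subset of genes; insulin dose and duration not given; both raised and lowered dpERK matter.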 Names joined by + are all predicted targets of the reagent. The record does not give: the amount of reagent, the time to read-out.

no.	gene	DRSC id	replicate 1, z-score of dpERK with insulin	replicate 2, z-score of dpERK with insulin	replicate 1, z-score of dpERK under basal conditions	replicate 1, z-score of ERK-YFP with insulin
1	CG15449	DRSC20521	0.52	0.27	-0.06	1.04
2	Phb1	DRSC03563	-0.57	-0.37	-2.2	0.12
3	KaiR1D	DRSC15516	1	-0.11	0.19	-0.66
4	LRR	DRSC06444	0.23	0.33	-0.52	0.58
5	coro	DRSC05007	-0.55	-0.15	0.37	0.32
6	coro	DRSC21417	0.51	0.31	-0.05	1.22
7	CG34008	DRSC13428	-0.53	-0.14	-0.4	-0.03
8	CG10939	DRSC06019	0.27	1.53	-0.89	0.02
9	CG10939	DRSC21734	0.08	2.46	0.26	0.1
10	Rh7	DRSC10529	-0.54	0.37	-0.56	-0.89
11	CG10512	DRSC11615	0.14	-0.23	0.45	-0.2
12	Cdk9	DRSC04601	3.19	6.68	-0.75	-0.29
13	sona	DRSC04089	0.57	0.56	-0.36	-0.13
14	sona	DRSC04574	-0.37	-4.57	-1.52	0.6
15	sona	DRSC04575	-0.47	0.15	2.55	-4.1
16	eRF3	DRSC03322	1.04	0.72	1.16	0.12
17	LeuRS-m	DRSC08595	0.54	1.09	0.58	0.23
18	CG7453	DRSC20046	0.08	0.61	-0.24	1.04
19	Golgin104	DRSC10459	0.31	0.54	0.91	1.01
20	Vsp37A	DRSC18794	2.28	0.42	1.69	-0.11
21	CG13460	DRSC10007	0.3	-0.7	1.42	0.65
22	NPF	DRSC17019	0.99	-0.55	0.22	-0.41
23	M6	DRSC11869	1.77	0.15	0.23	-0.43
24	betaNACtes2	DRSC19792	0.1	-1.64	-0.13	0.16
25	c12.2	DRSC18751	0.4	0.3	0.52	-0.24
26	stas	DRSC20104	-1.36	-0.86	0.58	0.94
27	CG14069	DRSC02372	-0.18	-0.55	0.46	0.03
28	Prosalpha3	DRSC04644	-0.93	-2.56	-2.74	1.1
29	CR6900	DRSC20018	-0.05	0.31	0.76	-0.09
30	CG14650	DRSC12236	0.5	0.31	-0.01	0.05

Already shown: entries from further up.
no.	gene	DRSC id	replicate 1, z-score of dpERK with insulin	replicate 2, z-score of dpERK with insulin	replicate 1, z-score of dpERK under basal conditions	replicate 1, z-score of ERK-YFP with insulin
14	sona	DRSC04574	-0.37	-4.57	-1.52	0.6
15	sona	DRSC04575	-0.47	0.15	2.55	-4.1
16	eRF3	DRSC03322	1.04	0.72	1.16	0.12
17	LeuRS-m	DRSC08595	0.54	1.09	0.58	0.23
18	CG7453	DRSC20046	0.08	0.61	-0.24	1.04
19	Golgin104	DRSC10459	0.31	0.54	0.91	1.01
20	Vsp37A	DRSC18794	2.28	0.42	1.69	-0.11
21	CG13460	DRSC10007	0.3	-0.7	1.42	0.65

More records follow:
no.	gene	DRSC id	replicate 1, z-score of dpERK with insulin	replicate 2, z-score of dpERK with insulin	replicate 1, z-score of dpERK under basal conditions	replicate 1, z-score of ERK-YFP with insulin
31	Zip71B	DRSC09686	0.19	0.07	0.15	0.2
32	ZC3H3	DRSC10696	-1.27	0.26	1.68	-8.36
33	Osi10b	DRSC12279	2.2	0.87	2.22	0.03
34	S-Lap7	DRSC06374	1.09	0.69	-0.39	-0.01
35	CG11664	DRSC18650	0.56	0.05	0.62	0.02
36	Tfb1	DRSC07082	0.31	1.28	-1.63	0.46
37	CG30265	DRSC21592	0.34	0.11	-0.85	-1.83
38	Hsp70Bb + Hsp70Ba + Hsp70Bc + 1 more	DRSC21247	-2.39	-2.22	-0.83	-1.17
39	Hsp70Bb + Hsp70Ba + Hsp70Bc + 1 more	DRSC21248	-1.98	-1.93	-1.05	-1.48
40	Ptx1	DRSC16804	0.52	0.05	-0.84	-0.05
41	CG34005	DRSC05700	1.17	0.32	0.98	0.02
42	CG32425	DRSC11739	-1.06	-4.81	-3.96	1.24
43	CG32425	DRSC11764	-0.62	-0.39	-0.11	-0.18
44	xit	DRSC18364	0.77	0.45	0.58	-0.09
45	mre11	DRSC03570	-0.62	0.31	0	1.02
46	mre11	DRSC22628	-0.04	0.69	0.46	1.9
47	Cyp313b1	DRSC16629	-0.04	-0.27	-1.11	0.02
48	Alp5	DRSC14269	-0.23	-0.5	0.05	-0.32
49	CG7707	DRSC10903	0.87	0.11	1.27	-1.17
50	CG6938	DRSC10752	-0.09	-0.07	-0.34	0.01
51	CCKLR-17D3	DRSC20015	0.88	2.25	0.41	0.96
52	CCKLR-17D3	DRSC20017	0.81	1.06	1.08	0.01
53	lncRNA:CR31647	DRSC21903	-0.32	0.22	0.29	0.69
54	Ssrp	DRSC04658	-3.13	-4.11	-3.63	-0.38
55	mthl7	DRSC10852	2.31	0.49	0	-0.46
56	CG5359	DRSC15780	0.05	-0.06	3.54	1.44
57	Coop	DRSC06604	0.05	0.97	-0.12	0.27
